Results from patent publication US20090099195A1 (ASTRAZENECA AB, priority 2007, published 2009).
Some of these results come from one statement about several compounds together.

Biological target: T1, P2X3 receptors (UniProt P56373)
T1 sequence (P56373 1-397): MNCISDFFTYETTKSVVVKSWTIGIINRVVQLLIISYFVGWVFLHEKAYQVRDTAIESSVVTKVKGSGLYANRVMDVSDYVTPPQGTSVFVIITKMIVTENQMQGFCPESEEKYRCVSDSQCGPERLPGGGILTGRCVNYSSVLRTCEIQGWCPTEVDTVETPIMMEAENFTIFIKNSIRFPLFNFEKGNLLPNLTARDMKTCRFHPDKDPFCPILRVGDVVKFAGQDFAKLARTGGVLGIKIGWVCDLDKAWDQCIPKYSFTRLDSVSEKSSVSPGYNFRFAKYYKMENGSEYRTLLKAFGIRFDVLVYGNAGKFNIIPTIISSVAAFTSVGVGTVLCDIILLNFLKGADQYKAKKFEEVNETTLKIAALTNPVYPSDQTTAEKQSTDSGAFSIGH
Assay: FLIPR antagonist assay, receptor or clone not stated (less preferred compounds)
Settings: compounds also tested

IC50, > 3.3 µM:
CC(=O)N1CCN(c2nc3c(c(N4CCC[C@@H]4C(=O)N(C)C4CCCCC4)n2)CN(C(C)C)C3=O)CC1 [1-[2-(4-acetylpiperazin-1-yl)-6-(1-methylethyl)-7-oxo-6,7-dihydro-5H-pyrrolo[3,4-d]pyrimidin-4-yl]-N-cyclohexyl-N-methyl-D-prolinamide]
CC(=O)N1CCN(c2nc3c(c(N4CCC[C@@H]4CNC(=O)c4ccccc4)n2)CN(C(C)C)C3=O)CC1 [N-({(2R)-1-[2-(4-acetylpiperazin-1-yl)-6-(1-methylethyl)-7-oxo-6,7-dihydro-5H-pyrrolo[3,4-d]pyrimidin-4-yl]pyrrolidin-2-yl}methyl)benzamide]
CC(=O)N1CCN(c2nc3c(c(N4CCCC4c4ccccn4)n2)CN(C(C)C)C3=O)CC1 (stereo not shown) [2-(4-acetylpiperazin-1-yl)-6-(1-methylethyl)-4-(2-pyridin-2-ylpyrrolidin-1-yl)-5,6-dihydro-7H-pyrrolo[3,4-d]pyrimidin-7-one]
CCC(=O)Nc1cccc(Nc2nc(N3CCOCC3)nc3c2CN(C(C)C)C3=O)c1 [N-(3-{[6-(1-methylethyl)-2-morpholin-4-yl-7-oxo-6,7-dihydro-5H-pyrrolo[3,4-d]pyrimidin-4-yl]amino}phenyl)propanamide]
CC(C)N1Cc2c(NCc3cnc4ccccc4c3)nc(N3CCC[C@H]3CN3CCCC3)nc2C1=O [6-(1-methylethyl)-2-[(2S)-2-(pyrrolidin-1-ylmethyl)pyrrolidin-1-yl]-4-[(quinolin-3-ylmethyl)amino]-5,6-dihydro-7H-pyrrolo[3,4-d]pyrimidin-7-one]
CC(=O)N1CCN(c2nc(NCC(c3ccccc3)N3CCOCC3)c3c(n2)C(=O)N(C(C)C)C3)CC1 (stereo not shown) [2-(4-acetylpiperazin-1-yl)-6-(1-methylethyl)-4-[(2-morpholin-4-yl-2-phenylethyl)amino]-5,6-dihydro-7H-pyrrolo[3,4-d]pyrimidin-7-one]
CC(=O)N1CCN(c2nc(NCc3nc(CC(C)C)no3)c3c(n2)C(=O)N(C(C)C)C3)CC1 [2-(4-acetylpiperazin-1-yl)-6-(1-methylethyl)-4-({[3-(2-methylpropyl)-1,2,4-oxadiazol-5-yl]methyl}amino)-5,6-dihydro-7H-pyrrolo[3,4-d]pyrimidin-7-one]
CC(=O)N1CCN(c2nc(NCC(C)c3ccc(Cl)cc3)nc3c2CN(C(C)C)C3=O)CC1 (stereo not shown) [4-(4-acetylpiperazin-1-yl)-2-{[2-(4-chlorophenyl)propyl]amino}-6-(1-methylethyl)-5,6-dihydro-7H-pyrrolo[3,4-d]pyrimidin-7-one]
CCOC(=O)N1CCN(c2nc(NCc3cnc4ccccc4c3)c3c(n2)C(=O)N(C(C)C)C3)CC1 [ethyl 4-{6-(1-methylethyl)-7-oxo-4-[(quinolin-3-ylmethyl)amino]-6,7-dihydro-5H-pyrrolo[3,4-d]pyrimidin-2-yl}piperazine-1-carboxylate]
CC(=O)N1CCN(c2nc(NCc3cnccn3)c3c(n2)C(=O)N(C(C)C)C3)CC1 [2-(4-acetylpiperazin-1-yl)-6-(1-methylethyl)-4-[(pyrazin-2-ylmethyl)amino]-5,6-dihydro-7H-pyrrolo[3,4-d]pyrimidin-7-one]
CC(C)C(Nc1nc(NCCN(C)C)nc2c1CN(C(C)C)C2=O)c1ccccc1 (stereo not shown) [2-{[2-(dimethylamino)ethyl]amino}-6-(1-methylethyl)-4-[(2-methyl-1-phenylpropyl)amino]-5,6-dihydro-7H-pyrrolo[3,4-d]pyrimidin-7-one]
Cc1ccccc1Nc1nc(N2CCOCC2)nc2c1CN(C(C)C)C2=O [6-(1-methylethyl)-4-[(2-methylphenyl)amino]-2-morpholin-4-yl-5,6-dihydro-7H-pyrrolo[3,4-d]pyrimidin-7-one]
CC(C)N1Cc2c(NCCN3CCCC3)nc(N3CCOCC3)nc2C1=O [6-(1-methylethyl)-2-morpholin-4-yl-4-[(2-pyrrolidin-1-ylethyl)amino]-5,6-dihydro-7H-pyrrolo[3,4-d]pyrimidin-7-one]
CC(C)N1Cc2c(Nc3ccc(Cl)cc3)nc(N3CCC(C(=O)O)CC3)nc2C1=O [1-{4-[(4-chlorophenyl)amino]-6-(1-methylethyl)-7-oxo-6,7-dihydro-5H-pyrrolo[3,4-d]pyrimidin-2-yl}piperidine-4-carboxylic acid]
CCN(CC)c1nc(N2CCCC2)nc2c1CN(C1CCCCC1)C2=O [6-cyclohexyl-4-(diethylamino)-2-pyrrolidin-1-yl-5,6-dihydro-7H-pyrrolo[3,4-d]pyrimidin-7-one]
CC(=O)N1CCN(c2nc3c(c(N4CCCC4c4ccc(OCCO)c(F)c4)n2)CN(C(C)C)C3=O)CC1 (stereo not shown) [2-(4-acetylpiperazin-1-yl)-4-{2-[3-fluoro-4-(2-hydroxyethoxy)phenyl]pyrrolidin-1-yl}-6-(1-methylethyl)-5,6-dihydro-7H-pyrrolo[3,4-d]pyrimidin-7-one]
CC(C)N1Cc2c(nc(N3CCOCC3)nc2N2CCN(c3cccc(Cl)c3Cl)CC2)C1=O [4-[4-(2,3-dichlorophenyl)piperazin-1-yl]-6-(1-methylethyl)-2-morpholin-4-yl-5,6-dihydro-7H-pyrrolo[3,4-d]pyrimidin-7-one]
CC(CNc1nc(NCCN(C)C)nc2c1CN(C(C)C)C2=O)c1ccccc1 (stereo not shown) [2-{[2-(dimethylamino)ethyl]amino}-6-(1-methylethyl)-4-[(2-phenylpropyl)amino]-5,6-dihydro-7H-pyrrolo[3,4-d]pyrimidin-7-one]
CC(=O)N1CCN(c2nc(NC(C)c3ccccc3)c3c(n2)C(=O)N(C(C)C)C3)CC1 (stereo not shown) [2-(4-acetylpiperazin-1-yl)-6-(1-methylethyl)-4-[(1-phenylethyl)amino]-5,6-dihydro-7H-pyrrolo[3,4-d]pyrimidin-7-one]
CC(C)N1Cc2c(Nc3ccc(N(C)C)cc3)nc(N3CCOCC3)nc2C1=O [4-{[4-(dimethylamino)phenyl]amino}-6-(1-methylethyl)-2-morpholin-4-yl-5,6-dihydro-7H-pyrrolo[3,4-d]pyrimidin-7-one]
CC(C)N1Cc2c(NCc3nc(-c4ccccc4)no3)nc(N3CCN(C)C(=O)C3)nc2C1=O [6-(1-methylethyl)-2-(4-methyl-3-oxopiperazin-1-yl)-4-{[(3-phenyl-1,2,4-oxadiazol-5-yl)methyl]amino}-5,6-dihydro-7H-pyrrolo[3,4-d]pyrimidin-7-one]
CC(C)c1ccc(CNc2nc(NCCN(C)C)nc3c2CN(C(C)C)C3=O)cc1 [2-{[2-(dimethylamino)ethyl]amino}-6-(1-methylethyl)-4-{[4-(1-methylethyl)benzyl]amino}-5,6-dihydro-7H-pyrrolo[3,4-d]pyrimidin-7-one]
CC(=O)N1CCN(c2nc(N[C@@H]3c4ccccc4C[C@@H]3O)c3c(n2)C(=O)N(C(C)C)C3)CC1 [2-(4-acetylpiperazin-1-yl)-4-{[(1R,2S)-2-hydroxy-2,3-dihydro-1H-inden-1-yl]amino}-6-(1-methylethyl)-5,6-dihydro-7H-pyrrolo[3,4-d]pyrimidin-7-one]
COc1ccc(Nc2nc(N3CCOCC3)nc3c2CN(C(C)C)C3=O)c(C)c1 [4-[(4-methoxy-2-methylphenyl)amino]-6-(1-methylethyl)-2-morpholin-4-yl-5,6-dihydro-7H-pyrrolo[3,4-d]pyrimidin-7-one]
COc1ccc2c(c1)CCCC2Nc1nc(N2CCN(C(C)=O)CC2)nc2c1CN(C(C)C)C2=O (stereo not shown) [2-(4-acetylpiperazin-1-yl)-4-[(6-methoxy-1,2,3,4-tetrahydronaphthalen-1-yl)amino]-6-(1-methylethyl)-5,6-dihydro-7H-pyrrolo[3,4-d]pyrimidin-7-one]
CC(C)N1Cc2c(Nc3ccc4c(c3)OCCO4)nc(N3CCOCC3)nc2C1=O [4-(2,3-dihydro-1,4-benzodioxin-6-ylamino)-6-(1-methylethyl)-2-morpholin-4-yl-5,6-dihydro-7H-pyrrolo[3,4-d]pyrimidin-7-one]
CC(=O)N1CCN(c2nc3c(c(N4CCCC4Cc4cccc(C)n4)n2)CN(C(C)C)C3=O)CC1 (stereo not shown) [2-(4-acetylpiperazin-1-yl)-6-(1-methylethyl)-4-{2-[(6-methylpyridin-2-yl)methyl]pyrrolidin-1-yl}-5,6-dihydro-7H-pyrrolo[3,4-d]pyrimidin-7-one]
COc1ccc2c(c1)CC(CNc1nc(N3CCN(C(C)=O)CC3)nc3c1CN(C(C)C)C3=O)CO2 (stereo not shown) [2-(4-acetylpiperazin-1-yl)-4-{[(6-methoxy-3,4-dihydro-2H-chromen-3-yl)methyl]amino}-6-(1-methylethyl)-5,6-dihydro-7H-pyrrolo[3,4-d]pyrimidin-7-one]
O=C1c2nc(N3CCOCC3)nc(NC(c3ccccc3)c3ccccc3)c2CN1C1CCC1 [6-cyclobutyl-4-[(diphenylmethyl)amino]-2-morpholin-4-yl-5,6-dihydro-7H-pyrrolo[3,4-d]pyrimidin-7-one]
CC(C)N1Cc2c(NCc3cnc4ccccc4c3)nc(N(C)C(CN(C)C)c3ccccc3)nc2C1=O (stereo not shown) [2-{[2-(dimethylamino)-1-phenylethyl] (methyl)amino}-6-(1-methylethyl)-4-[(quinolin-3-ylmethyl)amino]-5,6-dihydro-7H-pyrrolo[3,4-d]pyrimidin-7-one]
CC(C)N1Cc2c(nc(N3CCOCC3)nc2N(C)Cc2cccnc2)C1=O [6-(1-methylethyl)-4-[methyl(pyridin-3-ylmethyl)amino]-2-morpholin-4-yl-5,6-dihydro-7H-pyrrolo[3,4-d]pyrimidin-7-one]
